Laboratory results: PubChem BioAssay AID1259405 (NCATS, 2018)
Purpose: 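Silenced genes that increase secreted GFP made by CHO cells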 (primary screen). Cell system: Chinese hamster CHO-K1 ovary cells with stable secreted eGFP expression. Reagent: single siRNA against mouse genes, 0.8 pmol siRNA per well (2 µl of 400 nM stock). Time to read-out: 3 days. Read-out: 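Per-well intracellular GFP measured by laser scanning cytometry, plus viability from ATP luminescence, each relative to plate median of non-targeting control wells, in %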. Direction: GFP, % of control: higher = more GFP per well, higher productivity; viability (ATP), % of control: higher = more viable cells (more ATP). Active means: 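a knock-down is called active if GFP reaches 120% or more of non-targeting control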.
The deposit covers about 50,000 reagents; below is a part drawn at random. In the full data, about 4,000 (8%) are marked active. 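Mouse siRNA library applied to hamster cells; one well for each siRNA.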 Reagents against one gene are numbered here.

With knock-down of Rbbp7 #1, the screen gave GFP, % of control 69.2; viability (ATP), % of control 105; inactive.
Silencing of Rbbp7 #2 gave: GFP, % of control 94.8; viability (ATP), % of control 65.2; inactive.
Against Rbbp7 #3, the entry reads GFP, % of control 74.7; viability (ATP), % of control 83.3; inactive.
Depletion of Clp1 #1 gave: GFP, % of control 82.8; viability (ATP), % of control 92.3; inactive.
After knock-down of Clp1 #2, the screen gave GFP, % of control 89.9; viability (ATP), % of control 68; inactive.
Silencing of Clp1 #3 gave: GFP, % of control 96.6; viability (ATP), % of control 114; inactive.
Glt8d2 #1 scored GFP, % of control 125; viability (ATP), % of control 120; active.
With knock-down of Glt8d2 #2 the results were GFP, % of control 86.4; viability (ATP), % of control 45.3; inactive.
Mc4r #1 showed GFP, % of control 55.9; viability (ATP), % of control 75.3; inactive.
Knock-down of Mc4r #2 resulted in: GFP, % of control 85.6; viability (ATP), % of control 77.1; inactive.
Against Mc4r #3 the deposit lists GFP, % of control 78.6; viability (ATP), % of control 64.1; inactive.
Against Mxd4 #1, the values are GFP, % of control 122; viability (ATP), % of control 86.5; active.
After knock-down of Mxd4 #2, the screen gave GFP, % of control 79.4; viability (ATP), % of control 77.9; inactive.
With knock-down of Mxd4 #3 the results were GFP, % of control 86.5; viability (ATP), % of control 100; inactive.
After knock-down of Kdm1a #1 the results were GFP, % of control 67.6; viability (ATP), % of control 47.7; inactive.
Kdm1a #2 scored GFP, % of control 59.2; viability (ATP), % of control 52.5; inactive.
Kdm1a #3 gave GFP, % of control 169; viability (ATP), % of control 116; active.
Ppp2ca #1 gave GFP, % of control 124; viability (ATP), % of control 146; active.
Against Ppp2ca #2, the entry reads GFP, % of control 95.5; viability (ATP), % of control 77; inactive.
Knock-down of Sqor #1 resulted in: GFP, % of control 107; viability (ATP), % of control 84.8; inactive.
After knock-down of Sqor #2 the results were GFP, % of control 81.2; viability (ATP), % of control 60.3; inactive.
Sqor #3 showed GFP, % of control 59; viability (ATP), % of control 81.9; inactive.

3 entries from above, reformatted.
{"target gene": "Glt8d2", "reagent": 1, "GFP, % of control": 125, "viability (ATP), % of control": 120, "outcome": "active"}
{"target gene": "Glt8d2", "reagent": 2, "GFP, % of control": 86.4, "viability (ATP), % of control": 45.3, "outcome": "inactive"}
{"target gene": "Mc4r", "reagent": 1, "GFP, % of control": 55.9, "viability (ATP), % of control": 75.3, "outcome": "inactive"}

The results go on:
Depletion of Fhod1 #1 gave: GFP, % of control 87; viability (ATP), % of control 83.2; inactive.
Fhod1 #2 scored GFP, % of control 68.7; viability (ATP), % of control 89; inactive.
Silencing of Folh1 #1 came out at: GFP, % of control 62; viability (ATP), % of control 111; inactive.
Against Folh1 #2, the values are GFP, % of control 128; viability (ATP), % of control 76.4; active.
After knock-down of Folh1 #3, the record shows GFP, % of control 73.1; viability (ATP), % of control 75.6; inactive.
Against Mettl13 #1 the deposit lists GFP, % of control 36.9; viability (ATP), % of control 44.7; inactive.
Depletion of Mettl13 #2 gave: GFP, % of control 61.3; viability (ATP), % of control 81.3; inactive.
For Mettl13 #3, the entry reads GFP, % of control 79.4; viability (ATP), % of control 91.2; inactive.
Silencing of Or4c112 #1 came out at: GFP, % of control 56.8; viability (ATP), % of control 41.9; inactive.
Or4c112 #2 showed GFP, % of control 95.6; viability (ATP), % of control 61.8; inactive.
Or4c112 #3 showed GFP, % of control 80.6; viability (ATP), % of control 103; inactive.
Depletion of Clec18a #1 gave: GFP, % of control 54.5; viability (ATP), % of control 51.5; inactive.
Against Clec18a #2, the values are GFP, % of control 65.2; viability (ATP), % of control 60.4; inactive.
Depletion of Clec18a #3 came out at: GFP, % of control 63.8; viability (ATP), % of control 24.1; inactive.
Rps19 #1 scored GFP, % of control 47.8; viability (ATP), % of control 29; inactive.
With knock-down of Rps19 #2 the results were GFP, % of control 29.1; viability (ATP), % of control 10.2; inactive.
For Rps19 #3 the deposit lists GFP, % of control 111; viability (ATP), % of control 75.3; inactive.
With knock-down of Iigp1b #1, the record shows GFP, % of control 48.6; viability (ATP), % of control 58.3; inactive.
Against Iigp1b #2, the entry reads GFP, % of control 93.5; viability (ATP), % of control 78.8; inactive.
Iigp1b #3 showed GFP, % of control 107; viability (ATP), % of control 68.6; inactive.
